Source: paper doi:10.1101/2020.11.04.368498
No constants are given. Whether binding was seen depends on the method and setting. Some binding calls cover weakened binding; strength is not graded here. Where a sequence is shown, tags or fusion partners need not be part of it.

Experiments:
[1] = molecular target: T1, FLAG-tagged SRSF3, P84103; assay: pull-down; details: remark: other sources report otherwise
T1 chain: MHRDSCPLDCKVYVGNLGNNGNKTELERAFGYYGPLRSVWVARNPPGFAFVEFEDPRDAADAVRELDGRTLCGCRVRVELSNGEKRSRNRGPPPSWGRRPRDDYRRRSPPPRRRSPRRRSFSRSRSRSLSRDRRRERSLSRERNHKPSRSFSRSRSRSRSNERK

GST-tagged SRSF3, P84103 = molecular target: T2, GST-tagged SRSF3, P84103; assay: pull-down; details: remark: other sources report otherwise
T2 chain: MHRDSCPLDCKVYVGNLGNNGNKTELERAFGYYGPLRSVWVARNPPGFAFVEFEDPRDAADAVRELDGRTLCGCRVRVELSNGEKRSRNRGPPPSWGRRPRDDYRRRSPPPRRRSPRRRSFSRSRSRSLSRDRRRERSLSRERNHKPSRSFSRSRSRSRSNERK

B1: HIS-tagged Aurora-A, O14965 1-403 (enzyme)
chain: MDRSKENCISGPVKATAPVGGPKRVLVTQQFPCQNPLPVNSGQAQRVLCPSNSSQRIPLQAQKLVSSHKPVQNQKQKQLQATSVPHPVSRPLNNTQKSKQPLPSAPENNPEEELASKQKNEESKKRQWALEDFEIGRPLGKGKFGNVYLAREKQSKFILALKVLFKAQLEKAGVEHQLRREVEIQSHLRHPNILRLYGYFHDATRVYLILEYAPLGTVYRELQKLSKFDEQRTATYITELANALSYCHSKRVIHRDIKPENLLLGSAGELKIADFGWSVHAPSSRRTTLCGTLDYLPPEMIEGRMHDEKVDLWSLGVLCYEFLVGKPPFEANTYQETYKRISRVEFTFPDFVTEGARDLISRLLKHNPSQRPMLREVLEHPWITANSSKPSNCQNKESASKQS
**Q.** Which results are given for B1?
**A.** binding [1]: binds; binding (GST-tagged SRSF3, P84103): binds
